{"source": "PubChem BioAssay AID504804 (Drosophila RNAi Screening Center, 2011)", "screen": "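Knock-downs shielding fly cells from apoptosis caused by DNA damage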 (primary screen)", "cell system": "Drosophila Kc cells", "reagent": "long dsRNA against Drosophila genes, 0.5 µg dsRNA per well", "timing": "96 h (48 h knock-down, then 48 h drug)", "treatment": "doxorubicin 5 µg/ml for 48 h, added 48 h after dsRNA", "detection": "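Viability measured as cellular ATP by luminescence after 48 h knock-down then 48 h doxorubicin at 5 µg/ml; unnormalised plate counts for each replicate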", "scale": "raw ATP luminescence: higher = more viable cells, protection from doxorubicin", "rule for the call": "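Active when both duplicate wells lie at least 2 SD above the plate mean and protection is confirmed by rescreening and independent dsRNAs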", "note": "The deposit covers about 19,000 reagents; shown is an unselected part of those with a known target gene and a result. Over the whole deposit, 47 (0.25%) got an active call. 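Signals are raw, not normalised; exact z-scores behind calls not deposited; actives needed confirmation, so some wells reaching 2 SD are inactive.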 The numbers tell different reagents against one gene apart. A plus sign joins genes that one reagent is predicted to hit."}
{"target gene": "CG32213 + CG12519 + 825-Oak + 1 more", "reagent no.": 1, "raw ATP luminescence, replicate 1": 78037, "raw ATP luminescence, replicate 2": 66270, "Outcome": "inactive"}
{"target gene": "Obp69a", "reagent no.": 1, "raw ATP luminescence, replicate 1": 59967, "raw ATP luminescence, replicate 2": 67350, "Outcome": "inactive"}
{"target gene": "CG5532", "reagent no.": 1, "raw ATP luminescence, replicate 1": 1.65e5, "raw ATP luminescence, replicate 2": 1.70e5, "Outcome": "inactive"}
{"target gene": "Fic", "reagent no.": 1, "raw ATP luminescence, replicate 1": 80273, "raw ATP luminescence, replicate 2": 67513, "Outcome": "inactive"}
{"target gene": "CG32473", "reagent no.": 1, "raw ATP luminescence, replicate 1": 84240, "raw ATP luminescence, replicate 2": 86980, "Outcome": "inactive"}
{"target gene": "CG32473", "reagent no.": 2, "raw ATP luminescence, replicate 1": 51037, "raw ATP luminescence, replicate 2": 28740, "Outcome": "inactive"}
{"target gene": "CG9743", "reagent no.": 1, "raw ATP luminescence, replicate 1": 31540, "raw ATP luminescence, replicate 2": 36900, "Outcome": "inactive"}
{"target gene": "CG6230", "reagent no.": 1, "raw ATP luminescence, replicate 1": 1.14e5, "raw ATP luminescence, replicate 2": 72297, "Outcome": "inactive"}
{"target gene": "Mst57Da + alpha4GT2", "reagent no.": 1, "raw ATP luminescence, replicate 1": 2.62e5, "raw ATP luminescence, replicate 2": 2.31e5, "Outcome": "inactive"}
{"target gene": "CG11291", "reagent no.": 1, "raw ATP luminescence, replicate 1": 64583, "raw ATP luminescence, replicate 2": 37830, "Outcome": "inactive"}
{"target gene": "7B2", "reagent no.": 1, "raw ATP luminescence, replicate 1": 58227, "raw ATP luminescence, replicate 2": 62920, "Outcome": "inactive"}
{"target gene": "Sirt2", "reagent no.": 1, "raw ATP luminescence, replicate 1": 51490, "raw ATP luminescence, replicate 2": 53580, "Outcome": "inactive"}

2 entries from above, arranged by “raw ATP luminescence, replicate 2”, low to high.
{"target gene": "Fic", "reagent no.": 1, "raw ATP luminescence, replicate 1": 80273, "raw ATP luminescence, replicate 2": 67513, "Outcome": "inactive"}
{"target gene": "CG5532", "reagent no.": 1, "raw ATP luminescence, replicate 1": 1.65e5, "raw ATP luminescence, replicate 2": 1.70e5, "Outcome": "inactive"}
